PMC6389942
No constants are given. Whether binding was seen depends on the method and setting. Binding seen in cells or lysates may run through a third protein. Some entries that bind do so weakly or less than the wild type. Tags and fused reporters may be left off the sequences shown.

Columns and labels:
Assay in all cases: co-IP; HEK293T cells co-expressing both proteins; lysis buffer 20 mM Tris/HCl pH 7.5, 50 mM NaCl, 1% TritonX-100, 5 mM EGTA, 1 mM DTT, 2 mM MgCl2; IP with FLAG antibody-conjugated M2 agarose, 2 h at 4 °C; western blotting
[1] = biological target: FLAG-PCNT (pericentrin, full length) (human) (UniProt O95613)
[2] = biological target: FLAG-PCNT N-terminal half (a.a. 1–1962) (human) (UniProt O95613)
[3] = biological target: T1, FLAG-PCNT a.a. 2945–3216 (human) (UniProt O95613)
T1 sequence: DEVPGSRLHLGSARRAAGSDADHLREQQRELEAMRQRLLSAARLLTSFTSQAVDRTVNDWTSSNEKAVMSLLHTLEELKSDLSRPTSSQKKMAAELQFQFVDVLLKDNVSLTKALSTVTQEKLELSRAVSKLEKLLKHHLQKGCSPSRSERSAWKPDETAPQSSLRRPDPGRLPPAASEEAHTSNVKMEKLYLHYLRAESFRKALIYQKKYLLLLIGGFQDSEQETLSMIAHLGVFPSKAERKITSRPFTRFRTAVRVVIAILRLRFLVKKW

[4] = biological target: T2, FLAG-PCNT a.a. 3139–3336 (human) (UniProt O95613)
T2 sequence: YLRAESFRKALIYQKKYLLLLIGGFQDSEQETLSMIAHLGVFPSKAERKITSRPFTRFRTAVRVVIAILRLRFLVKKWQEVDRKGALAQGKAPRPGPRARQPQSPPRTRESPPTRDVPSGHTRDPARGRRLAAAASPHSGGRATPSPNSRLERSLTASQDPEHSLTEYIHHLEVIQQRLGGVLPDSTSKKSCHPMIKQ

binding [1]: binds
binding [2]: binds
binding [3]: binds
binding [4]: binds
B1: HA-Cep57 (centrosomal protein of 57 kDa, full length) (protein, UniProt Q86XR8-1 1-500)
chain: MAAASVSAASGSHLSNSFAEPSRSNGSMVRHSSSPYVVYPSDKPFLNSDLRRSPSKPTLAYPESNSRAIFSALKNLQDKIRRLELERIQAEESVKTLSRETIEYKKVLDEQIQERENSKNEESKHNQELTSQLLAAENKCNLLEKQLEYMRNMIKHAEMERTSVLEKQVSLERERQHDQTHVQSQLEKLDLLEQEYNKLTTMQALAEKKMQELEAKLHEEEQERKRMQAKAAELQTGLETNRLIFEDKATPCVPNARRIKKKKSKPPEKKSSRNYFGAQPHYRLCLGDMPFVAGKSTSPSHAVVANVQLVLHLMKQHSKALCNDRVINSIPLAKQVSSRGGKSKKLSVTPPSSNGINEELSEVLQTLQDEFGQMSFDHQQLAKLIQESPTVELKDKLECELEALVGRMEAKANQITKVRKYQAQLEKQKLEKQKKELKATKKTLDEERNSSSRSGITGTTNKKDFMKLRPGEKRRKNLQLLKDMQSIQNSLQSSSLCWDY
